Data taken from article PMC10630959, “Dissimilar Effect of P-Glycoprotein and Breast Cancer Resistance Protein Inhibition on the Distribution of Erlotinib to the Retina and Brain in Humans and Mice” (Molecular Pharmaceutics, 2023).

System: OCTs, OCTNs and OATPs at the mouse BRB
Test: [^3H]erlotinib in situ carotid perfusion, retina transport with SLC transporter inhibitors
Assay type: in vivo
Conditions: 100 μM fexofenadine, 5 mM TEA, 100 μM estrone-3-sulfate, 0.5 mM ergothioneine, 5 mM L-carnitine
Procedure: Transport of [^3H]erlotinib at the luminal BRB and BBB was measured by in situ carotid perfusion.[11],[25] With this method, the vascular composition of the brain and the eye is completely substituted by an artificial fluid, whose constitution can be modified. The perfusion fluid for the in situ carotid perfusion consisted of Krebs carbonate-buffered physiological saline with 128 mM NaCl, 24 mM NaHCO3, 4.2 mM KCl, 2.4 mM NaH2PO4, 1.5 mM CaCl2, 0.9 mM MgSO4, and 9 mM D-glucose, warmed to 37 °C and gassed with 95% O2/5% CO2 to adjust the pH to 7.40. The pH of the perfusion fluid was checked and adjusted with a digital pH meter (±0.05 pH units) immediately before perfusion. Tissue accumulation of [^3H]erlotinib was measured under trans-influx zero to determine the kinetic conditions required to measure transport solely across the membrane, separating the sucrose (vascular) from the nonsucrose (tissue parenchyma) space. […]
Mice were anesthetized with ketamine and xylazine (140 and 8 mg/kg, intraperitoneal), and a catheter was inserted into the right carotid artery after ligation of the appropriate vessels. […] Dual-label counting was carried out in a Tri-Carb 2810TR instrument (PerkinElmer) to measure radioactivity (disintegrations per minute, dpm). […] Therefore, radioactivity in the whole eye was assumed to represent only the posterior segment of the eye, which comprises the retina. […]

CC(C)(C(=O)O)c1ccc(C(O)CCCN2CCC(C(O)(c3ccccc3)c3ccccc3)CC2)cc1 (stereo not shown) [fexofenadine]
significant changes in retina [^3H]erlotinib transport on co-perfusion: None
